Data from paper PMC11496881.
Results are given in words; binding and its absence hold for the method and conditions named. Binding seen in cells or lysates may run through a third protein. Some entries that bind do so weakly or less than the wild type.

The chains behind the UniProt entries cited, without tags or fusion partners. Residues count along the entry.
UniProt P63165, residues 1-97: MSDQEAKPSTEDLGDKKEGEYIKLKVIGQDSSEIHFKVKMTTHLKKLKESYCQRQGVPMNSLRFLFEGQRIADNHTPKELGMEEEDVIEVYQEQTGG
UniProt Q9Z172, residues 1-92: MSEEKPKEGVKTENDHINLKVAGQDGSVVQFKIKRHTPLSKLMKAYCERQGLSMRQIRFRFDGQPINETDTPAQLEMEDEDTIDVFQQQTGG

Assays:
[1] = target: T1, Liver kinase B1 (LKB1), HKC-8 cells (human (endogenous in HKC-8)) (UniProt Q15831); assay: co-IP; lysates of HKC-8 cells transfected with pcDNA3 or pDel-beta-catenin for 24 h, precipitated overnight at 4 °C with anti-LKB1 and protein A/G plus agarose, blotted with anti-Sumo1 or anti-Sumo2/3
T1 sequence: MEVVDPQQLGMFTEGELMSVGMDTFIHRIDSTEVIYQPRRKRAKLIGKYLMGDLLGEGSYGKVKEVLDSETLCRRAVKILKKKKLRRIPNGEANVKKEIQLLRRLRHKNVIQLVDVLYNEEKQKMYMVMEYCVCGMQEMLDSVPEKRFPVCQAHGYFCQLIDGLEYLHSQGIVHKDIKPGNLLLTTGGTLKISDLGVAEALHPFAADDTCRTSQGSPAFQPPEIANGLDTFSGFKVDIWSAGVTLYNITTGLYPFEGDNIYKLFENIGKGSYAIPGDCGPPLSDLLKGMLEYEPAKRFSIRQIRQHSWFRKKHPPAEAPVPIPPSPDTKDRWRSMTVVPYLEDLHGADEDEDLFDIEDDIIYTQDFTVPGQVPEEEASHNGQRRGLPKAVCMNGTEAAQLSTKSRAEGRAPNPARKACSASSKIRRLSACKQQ

[2] = target: T2, Liver kinase B1 (LKB1), mouse kidney (mouse (endogenous in kidney tissue)) (UniProt Q9WTK7); assay: co-IP; mouse kidney homogenates (sham and UIRI; UUO wild type and Ksp-beta-catenin-/-) precipitated overnight at 4 °C with anti-LKB1 and protein A/G plus agarose, washed three times with lysis buffer, blotted with anti-Sumo1, anti-Sumo2/3 or anti-Sumo3
T2 sequence: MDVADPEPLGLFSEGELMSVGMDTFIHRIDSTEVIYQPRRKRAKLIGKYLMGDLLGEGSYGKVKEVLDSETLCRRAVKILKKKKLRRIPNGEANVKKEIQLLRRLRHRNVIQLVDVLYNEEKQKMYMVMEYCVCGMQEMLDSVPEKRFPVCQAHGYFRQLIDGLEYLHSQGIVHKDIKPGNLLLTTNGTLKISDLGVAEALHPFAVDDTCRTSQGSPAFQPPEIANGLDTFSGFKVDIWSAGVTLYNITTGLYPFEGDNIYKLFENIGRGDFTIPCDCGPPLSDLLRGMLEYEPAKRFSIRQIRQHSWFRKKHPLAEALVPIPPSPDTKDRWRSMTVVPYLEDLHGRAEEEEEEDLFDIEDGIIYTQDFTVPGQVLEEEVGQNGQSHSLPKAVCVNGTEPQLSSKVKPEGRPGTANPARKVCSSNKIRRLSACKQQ

Substance	binding [1]	binding [2]
Sumo1, HKC-8 cells (from UniProt P63165 1-97)	binds	–
Sumo3, mouse kidney (from UniProt Q9Z172 1-92)	–	binds
